LdMetRS: 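Methionyl-tRNA synthetase (putative), Leishmania donovani (UniProt E9BF75). Primary screen of methionyl-tRNA synthetase; the read-out is not stated. The test concentration is not given. Values are per cent inhibition. Size under these conditions: about 68,000 compounds, about 24 of them at 50% or above in at least one test.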
Mtb heat-shock: 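Assay on Mycobacterium tuberculosis, filed only as a heat shock assay from Cornell; the read-out is not stated. The concentration is filed as 10 mM, unlikely as a test dose, so the dose is not known. Higher reads as stronger inhibition (inferred: compounds with an IC50 in retests scored well above the rest). About 69,000 compounds were tested under these conditions; 1.4% (about 930) showed 50% or more at least once.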

Protein sequences, listed by entry. Tags and fused reporters are not part of them.
UniProt E9BF75, entry or part of it: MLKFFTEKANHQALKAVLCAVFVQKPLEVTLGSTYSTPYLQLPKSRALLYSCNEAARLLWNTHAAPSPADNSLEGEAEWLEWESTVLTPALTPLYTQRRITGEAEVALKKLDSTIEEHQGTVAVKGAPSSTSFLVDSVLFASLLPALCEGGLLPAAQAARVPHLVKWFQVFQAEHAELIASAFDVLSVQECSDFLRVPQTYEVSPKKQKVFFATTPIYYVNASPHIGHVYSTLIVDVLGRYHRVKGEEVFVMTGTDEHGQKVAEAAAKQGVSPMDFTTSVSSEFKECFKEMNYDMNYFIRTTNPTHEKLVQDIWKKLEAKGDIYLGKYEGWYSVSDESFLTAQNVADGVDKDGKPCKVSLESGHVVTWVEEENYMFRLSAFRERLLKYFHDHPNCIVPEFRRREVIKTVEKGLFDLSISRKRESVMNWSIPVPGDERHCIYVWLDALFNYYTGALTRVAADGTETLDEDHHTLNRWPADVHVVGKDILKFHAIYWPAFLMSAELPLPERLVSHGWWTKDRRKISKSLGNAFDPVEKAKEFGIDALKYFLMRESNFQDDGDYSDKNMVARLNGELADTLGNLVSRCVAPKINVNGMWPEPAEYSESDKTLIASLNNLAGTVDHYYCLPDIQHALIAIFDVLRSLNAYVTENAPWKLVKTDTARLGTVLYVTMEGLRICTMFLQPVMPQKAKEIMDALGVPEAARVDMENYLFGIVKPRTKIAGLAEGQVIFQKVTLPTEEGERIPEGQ

All values are in %. The controls that fix the scale are not given in the record; negative values are as filed. The compounds are a random part of those screened. A dash means the value is not listed here; it may have been measured.

| compound | LdMetRS | Mtb heat-shock |
|---|---|---|
| `COCCCSc1ccc(NC(=O)Nc2cn[nH]c2)cc1` | 3.665% | -27.12% |
| `Cc1cn2nc(N3CCCC3Cn3nc(C)cc3C)sc2n1` (stereo unspecified) | 18.06% | -2.663% |
| `CC(C)c1nc(-c2cc(C(=O)N3CCN(C)CC3)c3ccccn23)cs1` | 9.774% | - |
| `CCn1cc(C#N)c(=O)c2cc(Br)ccc21` | 15.25% | -25.49% |
| `Cc1cnn(CC2CCCN2Cc2cc(=O)n3cc(C)ccc3n2)c1` (stereo unspecified) | 18.51% | 33.54% |
| `CC(c1ccco1)N(C(=O)NCc1ccon1)C1CC1` (stereo unspecified) | 0.3472% | -13.46% |
| `COc1ccc(C(C(=O)O)N2CCC(Cn3cccn3)CC2)cc1F` (stereo unspecified) | 3.284% | 0.1662% |
| `CCOCC(O)CN1CCN(C(=O)Cc2ccc3c(c2)CCO3)CC1` (stereo unspecified) | 16.33% | -10.69% |
| `CCOc1cc(C)nc(N2CCN(C(=O)C(C)NC(C)=O)CC2)n1` (stereo unspecified) | 27.37% | -3.048% |
| `CNC(=O)C(C)(C)N1CCC[C@H]1C(=O)NCCN1CCCC1.Cl.Cl` | - | -16.24% |
| `COc1ccc(CN2C[C@H](N3CCCC3=O)[C@@H]3OCCC[C@@H]32)cc1` | 9.343% | - |
| `CN(C)C(=O)N1CC2(CCN(S(=O)(=O)C3CC3)CC2)c2ccccc21` | 3.78% | -18.3% |
| `Cc1ccsc1CN1CC[C@H]2OCC[C@@]2(C(=O)N2CCCO2)C1` | 5.205% | - |
| `Cc1ccc(OCC(=O)Nc2cc(C(=O)O)cc(S(C)(=O)=O)c2)cc1C` | 11.76% | -13.14% |
| `[H][C@]12CCN(C(=O)Cc3cccs3)C[C@@]1([H])OCCN(S(C)(=O)=O)C2` | - | 30.43% |
| `Cc1ccc(CN2CCn3c(CN4CCN(C)CC4)cnc3C2C)s1.O=C(O)C(F)(F)F.O=C(O)C(F)(F)F.O=C(O)C(F)(F)F` (stereo unspecified) | - | -29.44% |
| `CC(C(=O)N(Cc1ccc(C#N)cc1)CC(F)(F)F)S(C)(=O)=O` (stereo unspecified) | 17.33% | 10.46% |
| `O=C(c1ccnnc1)N1C[C@H]2CN(Cc3cccc(F)c3)C(=O)[C@H]2C1` | 7.333% | - |
| `CCc1nc(-c2noc3ccc(C(=O)N(C)CCOC)cc23)co1` | 16.43% | -5.212% |
| `CC1c2ncc(Cn3cccn3)n2CCN1Cc1cccnc1.O=C(O)C(F)(F)F.O=C(O)C(F)(F)F` (stereo unspecified) | - | -18.15% |
| `c1c[nH]c(CN2CCC3(CC2)COCCN(CCN2CCCC2)C3)c1` | 15.22% | - |
| `Cc1occc1C(=O)N1CCCN(Cc2cnn(C(C)C)c2)CC1` | 17.06% | 0.79% |
| `O=C(NCC1CC2(CO1)CN(c1ncccn1)C2)C1CCC1` (stereo unspecified) | 12.47% | 6.085% |
| `CN(C)c1cc2c(nn1)CCN(C(=O)C1CCCc3ccccc31)C2` (stereo unspecified) | 15.08% | -8.436% |
| `CC(C)OCCCNC(=O)CN1CCC(N2CCN(C)C2=O)CC1` | 3.286% | 9.356% |
| `O=C(NCCNc1ncccn1)N1CCCC1c1ccncc1` (stereo unspecified) | 12.72% | -2.507% |
| `CCOCCC1(CNC(=O)c2ccsc2)CCC1` | 9.399% | 27.25% |
| `CN(C)CCNC(=O)CC1CCN(c2cccnn2)CC1` | 16.19% | -15.13% |
| `c1cc(-c2nnc([C@H]3CCNC3)o2)ccn1` | 5.263% | -6.115% |
| `CCN(CC1=CCN(C)CC1)C(=O)CCOC` | 9.524% | 18.34% |
| `CC(C)N(C)Cc1cnc2n1CCN(C(=O)Cc1ccsc1)C2.O=C(O)C(F)(F)F` | - | -26.45% |
| `COCCN1C(=O)[C@H]2CC[C@@H]1CN(c1ncccn1)C2` | 8.193% | - |
| `Cn1c(NCC(O)c2ccc(F)c(F)c2)c(C#N)c(=O)n(C)c1=O` (stereo unspecified) | 27.32% | -11.3% |
| `O=C(c1ccncn1)N1CCC[C@]2(C[C@H](Oc3ncccc3F)CO2)C1` | 6.25% | - |
| `COCCN(Cc1cc(O)nc2ccccc12)C(=O)NC(C)C` | 10.22% | 104.4% |
| `O=C(C1CCCc2[nH]ncc21)N1CCCC1` (stereo unspecified) | 6.32% | -7.573% |
| `CCc1nc(NS(=O)(=O)c2ccc(F)cc2Cl)no1` | 14.34% | 1.834% |
| `CCN1C[C@@H]2[C@@H](OC)CCN(S(=O)(=O)c3ccccc3)[C@@H]2C1` | 5.923% | - |
| `CN(C)CCn1ccnc1C1CCCN(c2ncc(Cl)cc2F)C1` (stereo unspecified) | 17.98% | -7.111% |
| `CC(C)CC(NC(=O)C1=CCCC1)C(=O)N1CCC(CO)CC1` (stereo unspecified) | -2.507% | 5.485% |
| `Cn1cc(CNC(=O)c2cc3c(s2)CCCCC3)cn1` | - | -18.72% |
| `COc1cc2c(cc1CNCc1cccnc1-n1cccn1)OC(C)C2` (stereo unspecified) | 7.666% | - |
| `Fc1ccc2[nH]c(C3CCCN3CCc3ccccn3)nc2c1` (stereo unspecified) | 14.5% | 61.35% |
| `COc1ccc(CN2CCc3sccc3C2C)cc1CN1CCOCC1.Cl` (stereo unspecified) | - | 6.91% |
| `O=C(c1cnns1)N1CCN(c2ccc(F)cc2Cl)CC1` | 18.53% | -13.93% |
| `CC(=O)N[C@@H]1CN(C(=O)CC2CCOCC2)C[C@H]1O` | 15.82% | 8.987% |
| `N#CCCN(CC1CCOC1)S(=O)(=O)c1c(F)cccc1Cl` (stereo unspecified) | 7.258% | 4.498% |
| `CN(CC(F)(F)F)C(=O)CNC(=O)N1CCCC(N(C)C)C1` (stereo unspecified) | 18.32% | 5.809% |
| `CCN1CCn2c(C)cnc2C12CCN(C(=O)c1ccco1)CC2.O=C(O)C(F)(F)F.O=C(O)C(F)(F)F` | - | -2.925% |
| `CCn1cc(S(=O)(=O)N2CCCC2c2ccc(C)o2)cn1` (stereo unspecified) | 11.64% | -12.42% |
| `CC(C)(NS(C)(=O)=O)C(=O)NCc1cccc(Br)c1` | 4.178% | 4.161% |
| `CC(C)NC(=O)CC1COC2(CCN(Cc3ccco3)CC2)C1` (stereo unspecified) | -0.9615% | -3.304% |
| `Fc1ccc2[nH]c3c(c2c1)CCN1C(c2ccccn2)N2CCC31CC2` (stereo unspecified) | 10.64% | 21.51% |
| `Oc1ccc(-c2c(-c3ccccc3)ncn2C2CCNC2)cc1` (stereo unspecified) | 7.902% | 6.456% |
| `CCN(C)c1ncnc2c1CCN(Cc1ccncc1)CC2.O=C(O)C(F)(F)F.O=C(O)C(F)(F)F.O=C(O)C(F)(F)F` | - | -24.51% |
| `CCNc1ccnc(N2Cc3cnc(CC(C)C)nc3C2)n1` | 6.25% | 35.37% |
| `Cc1nccn1C1(C(=O)O)CCN(Cc2ccc3c(c2)OCCO3)CC1` | 5.459% | 2.11% |
| `O=C1NCCCCC1NCc1csc(-c2ccsc2)n1` (stereo unspecified) | 4.577% | 11.52% |
| `CCC(CC)(CNC(=O)OC(C)(C)C)NC(=O)C1CC1` | 9.278% | 28.24% |

4 of the entries, repeated:

- CC(=O)N[C@@H]1CN(C(=O)CC2CCOCC2)C[C@H]1O | LdMetRS: 15.82%; Mtb heat-shock: 8.987%
- [H][C@]12CCN(C(=O)Cc3cccs3)C[C@@]1([H])OCCN(S(C)(=O)=O)C2 | Mtb heat-shock: 30.43%
- COc1cc2c(cc1CNCc1cccnc1-n1cccn1)OC(C)C2 (stereo unspecified) | LdMetRS: 7.666%
- CCN1C[C@@H]2[C@@H](OC)CCN(S(=O)(=O)c3ccccc3)[C@@H]2C1 | LdMetRS: 5.923%

Measurements from “University of Dundee, Small-Polar-MMV Screening Library” (2021), ChEMBL document CHEMBL3988442.